The results in this text go back to publication PMC6411869.

Results are given in words; binding and its absence hold for the method and conditions named. In cells and extracts the contact can be indirect. Here binding means that the protein was enriched with, or labelled near, the bait; the list need not be complete.

The assay has as its target HA-tagged TRIAD3B (E3 ubiquitin-protein ligase TRIAD3/RNF216, longest isoform) (human). Put plainly: affinity purification with mass spectrometry; HA-TRIAD3B affinity purified from HEK293T lysate on anti-HA magnetic beads, incubated with approx. 5 mg protein of mouse cortex lysate at 4 °C for 5 h, washed 4x in PBS, 0.5% Triton X-100; LC-MS/MS; hits found in 3 of 3 experiments with at least 10-fold enrichment over the HA-control; only the target purified.

B1: RNF41 (E3 ubiquitin-protein ligase NRDP1) from mouse cortex lysate (protein, UniProt Q8BH75 1-317)
chain: MGYDVTRFQGDVDEDLICPICSGVLEEPVQAPHCEHAFCNACITQWFSQQQTCPVDRSVVTVAHLRPVPRIMRNMLSKLQIACDNAVFGCSAVVRLDNLMSHLSDCEHNPKRPVTCEQGCGLEMPKDELPNHNCIKHLRSVVQQQQSRIAELEKTSAEHKHQLAEQKRDIQLLKAYMRAIRSVNPNLQNLEETIEYNEILEWVNSLQPARVTRWGGMISTPDAVLQAVIKRSLVESGCPASIVNELIENAHERSWPQGLATLETRQMNRRYYENYVAKRIPGKQAVVVMACENQHMGDDMVQEPGLVMIFAHGVEEI
Consider B1, for which the binding entry is listed as “binds”.

B2: Ankyrin repeat domain-containing protein 13D (Ankrd13D) from mouse cortex lysate (protein, UniProt Q6PD24 1-605)
chain: MAGLGPTFPLHRLVWANRHRELEAALHSRKHDIEQEDPQGRTPLELAVTLGNLESVRVLLRHNANVGKESHQGWAVLQEAVSTGDPEMVQLVLQYRDFQRATQRLAGIPELLNKLRQAPDFYVEMKWEFTSWVPLVSKMCPSDVYRVWKRGESLRVDTSLLGFEHMTWQRGRRSFIFRGQEAGALVMEVDHDRQVVHTETLAPALHEPEALLAAMRPSEEHVASRLTSPIVSTHLDTRNVAFERNKCGIWGWRSEKMESVSGYEAKVYSATNVELVTRTRTEHLSDQDKLRNKGGKTPFQSFLGMAQQHSSHTLAPVQQAASPTNPTAISAEEYFDPSFSLESRNIGRPIEMSSKVQRFKATLWLSEEHPLSLGDQVTPIIDLMAISNAHFAKLRDFITLRLPPGFPVKIEIPLFHVLNARITFSNLCGCDEPVSSVCVPNSSSAISASGSPFPCEVDPTVFEVPEGYSVLGAERSEPLRDEDDDLLQFAIQQSLLEAGTEAEQVTVWEALTNTRPGIHPPPRVTVFEEQLQLEQALQESLQLSTESRGPESPQKTPPSPAPPSFEEQLRLALELSSREQEELERRGQQEEDDLQRILQLSLTEH
For the molecule B2, the binding result is “binds”.
